Counter-ions that a name gives are not always drawn. Where a SMILES comes first, the peptide text is derived from it.
System: OATP1B2
Experiment: Untargeted metabolomics of plasma and DRG, WT vs OATP1B2-deficient mice
Format: in vivo, mouse
Details: untargeted metabolomics, WT vs OATP1B2-deficient mice
[1] = supplement sheet "Figure 5B" (volcano plot)
[2] = Figure 5B source data (volcano plot), log2 fold change of metabolite level

Compound	Log2FoldChange [1]	Log2FoldChange (sheet "Figure 5C")	further results
CCCCCCCCCCCCCCCCCC(=O)OC[C@@H](O)COP(=O)(O)OC[C@@H](O)CO [1-stearoyl-GPG (18:0)]	2.057	0.08406	–
OC[C@H]1O[C@@H](n2cnc3c(O)nc(O)nc32)[C@H](O)[C@@H]1O [xanthosine]	0.4957	0.4222	–
CC(C)(O)CC(=O)O[C@H](CC(=O)[O-])C[N+](C)(C)C [beta-hydroxyisovaleroylcarnitine]	–	–	Log2FoldChange (supplement sheet "Figure 5B"): -0.1047
CCCC(=O)OC(CC(=O)[O-])C[N+](C)(C)C (stereo not drawn) [butyrylcarnitine (C4)]	–	0.1763	–
CC(C)C[C@H](NC(C)C(=O)O)C(=O)O (stereo partly drawn) [1-carboxyethylleucine]	0.2265	-0.2009	–
CCCCCCCC/C=C\CCCCC[C@H](O)CC(=O)O [3-hydroxyoleate*]	–	–	Log2FoldChange [2]: -0.2009
N[C@@H](CS(=O)(=O)O)C(=O)O [3-sulfo-L-alanine]	–	-0.08927	–
NC=N[C@@H](CCC(=O)O)C(=O)O [formiminoglutamate]	0.848	–	–
CC(=O)N[C@@H](Cc1ccc(O)cc1)C(=O)O [N-acetyltyrosine]	0.3448	0.09761	–
COc1cc(CCC(=O)O)ccc1OS(=O)(=O)O [dihydroferulic acid sulfate]	–	–	Log2FoldChange (supplement sheet "Figure 5B"): -0.1203
O=C1OC(C(O)CO)C(=O)C1=O (stereo not drawn) [dehydroascorbate]	–	0.1375	–
C[S+](CCCN)C[C@H]1O[C@@H](n2cnc3c(N)ncnc32)[C@H](O)[C@@H]1O (stereo partly drawn) [S-adenosylmethioninamine]	–	0.251	–
CC(C)C[C@H](NC(=O)[C@H](C)N)C(=O)O [alanylleucine] (H-Ala-Leu-OH)	–	0.3103	–
C=CCc1ccc(OS(=O)(=O)O)cc1 [4-allylphenol sulfate]	0.4854	–	–
CCCCC/C=C\C/C=C\C/C=C\C/C=C\CCCC(=O)O[C@H](COC(=O)CCCCCCCCCCCCC)COP(=O)([O-])OCC[N+](C)(C)C	–	0.2016	–
CCCCCCCCCCCCCCCCCC(=O)O[C@H](CC(=O)[O-])C[N+](C)(C)C [stearoylcarnitine (C18)]	–	0.08406	–
NC(=O)NCCC[C@H](NC(=O)CC[C@H](N)C(=O)O)C(=O)O [gamma-glutamylcitrulline*]	–	–	Log2FoldChange (supplement sheet "Figure 5B"): 0.05658
O=c1ccn([C@H]2C[C@H](O)[C@@H](CO)O2)c(=O)[nH]1 [2'-deoxyuridine]	–	-0.1361	Log2FoldChange [2]: -0.1681
CC(C)C[C@H](NC(=O)[C@@H](N)C(C)C)C(=O)O [valylleucine] (H-Val-Leu-OH)	–	0.251	–
CCCCCCCCCC(=O)O [caprate (10:0)]	–	0.02857	Log2FoldChange (supplement sheet "Figure 5B"): 0.08406
C=CC1=C(C)/C(=C/c2[nH]c(Cc3[nH]c(/C=C4\NC(=O)C(C)=C4C=C)c(C)c3CCC(=O)O)c(CCC(=O)O)c2C)NC1=O [bilirubin (Z,Z)]	2.392	–	–
C[N+](C)(C)C[C@@H](CC(=O)[O-])OC(=O)CCCCC(=O)O [adipoylcarnitine (C6-DC)]	–	–	Log2FoldChange (supplement sheet "Figure 5B"): -0.1681
CC(C)CC(O)C(=O)O (stereo not drawn) [alpha-hydroxyisocaproate]	1.195	–	–
CCCCCC/C=C\CCCCCCCC(=O)OCC(O)CO (stereo not drawn) [1-palmitoleoylglycerol (16:1)*]	–	0.2869	–

Compound	Log2FoldChange [1]	Log2FoldChange (sheet "Figure 5C")	further results
CC(=O)N[C@@H](C)C(=O)O [N-acetylalanine]	–	–	Log2FoldChange (supplement sheet "Figure 5B"): 0.09761
NC(=O)NC(NC(N)=O)C(=O)O [allantoic acid]	–	–	Log2FoldChange [2]: -0.1844
O=C(O)CCCCC(O)CC(=O)O (stereo not drawn) [3-hydroxysuberate]	–	–	Log2FoldChange [2]: -0.3219
CC(=O)NC(CCCCN)C(=O)O (stereo not drawn) [N2-acetyllysine]	–	0.3561	Log2FoldChange (supplement sheet "Figure 5B"): 0.09761
NCCCNCCCCNCCCN [spermine]	0.3674	-0.1361	–
Cc1cc2nc3c(=O)[nH]c(=O)nc-3n(C[C@H](O)[C@H](O)[C@H](O)CO)c2cc1C [riboflavin (Vitamin B2)]	0.3448	0.05658	–
CCCCC/C=C\C/C=C\C/C=C\C/C=C\CCCC(=O)O[C@H](CC(=O)[O-])C[N+](C)(C)C [arachidonoylcarnitine (C20:4)]	0.9411	–	–
O=C(O)CCc1ccccc1.O=C(O)CCc1ccccc1 [3-phenylpropionate (hydrocinnamate)]	0.696	–	–
O=C(O)CCCCCCCCCC(=O)O [undecanedioate (C11-DC)]	1.585	–	–
CCCCCCCC/C=C\CCCCCCCC(=O)OC[C@H](COP(=O)([O-])OCC[N+](C)(C)C)OC(=O)CCCCCCC/C=C\CCCCCCCC [1,2-dioleoyl-GPC (18:1/18:1)]	–	-0.1361	–
Cn1cnc(CC(=O)O)c1 [1-methyl-4-imidazoleacetate]	–	0.4751	–
CC(C)[C@H](C)CC[C@@H](C)[C@H]1CC[C@H]2[C@@H]3CC=C4C[C@@H](O)CC[C@]4(C)[C@H]3CC[C@]12C [campesterol]	0.2869	–	–
Nc1ccccc1OS(=O)(=O)O [2-aminophenol sulfate]	–	–	Log2FoldChange (supplement sheet "Figure 5B"): 0.1763
CCCCC/C=C\C/C=C\CCCCCCCC(=O)O[C@H](CO/C=C\CCCCCCCCCCCCCCCC)COP(=O)(O)OCCN	0.3448	–	–
CC/C=C\C/C=C\C/C=C\C/C=C\C/C=C\C/C=C\CCCCC(=O)O [nisinate (24:6n3)]	–	0.4647	Log2FoldChange (supplement sheet "Figure 5B"): 0.05658
CCCCCCCCCCCCCCCC(=O)OC(CC(=O)[O-])C[N+](C)(C)C (stereo not drawn) [palmitoylcarnitine (C16)]	0.251	0.08406	–
CCC=CCC=CCC=CCCCCCCCC(=O)OC(COC(=O)CCCCCCCC=CCC=CCCCCC)COP(=O)([O-])OCC[N+](C)(C)C (stereo not drawn)	0.5945	–	–
C[N+](C)(C)CCOP(=O)(O)O [choline phosphate]	–	-0.0145	–
NC(N)=NCCC[C@H](O)C(=O)O [argininate*]	0.3448	0.696	–
N=C(N)NC(CC(=O)O)C(=O)O (stereo not drawn) [guanidinosuccinate]	0.585	–	–
CCCCCCCCCCCCCCCC(=O)OC[C@H](COP(=O)([O-])OCC[N+](C)(C)C)OC(=O)CCCCCCCCCCCCCCC [1,2-dipalmitoyl-GPC (16:0/16:0)]	0.3896	-0.2345	–
CCCCC/C=C\C/C=C\C/C=C\C/C=C\CCCC(=O)OC(CO)CO [2-arachidonoylglycerol (20:4)]	–	0.263	Log2FoldChange (supplement sheet "Figure 5B"): -0.08927
CCCCCCCCC=CCCCCCCCC(=O)OC(COC=CCCCCCCCCCCCCCC)COP(=O)(O)OCCN (stereo not drawn)	0.4005	-0.2863	–
C/C(=C\C(=O)O)CC(=O)O [3-methylglutaconate]	–	0.3785	Log2FoldChange (supplement sheet "Figure 5B"): 0.08406

Compound	Log2FoldChange [1]	Log2FoldChange (sheet "Figure 5C")	further results
C[N+](C)(C)[O-] [trimethylamine N-oxide]	0.3785	–	–
CCCCCCCC/C=C\CCCCCCCC(=O)OC(CC(=O)[O-])C[N+](C)(C)C (stereo not drawn) [oleoylcarnitine (C18:1)]	0.6415	–	–
Nc1nc2c(ncn2[C@@H]2O[C@H](CO)[C@@H](OP(=O)(O)O)[C@H]2O)c(=O)[nH]1 [guanosine 3'-monophosphate (3'-GMP)]	–	0.111	–
CCCCCCCC/C=C\CCCCCCCC(=O)NCCS(=O)(=O)O [N-oleoyltaurine]	–	0.3448	Log2FoldChange (supplement sheet "Figure 5B"): 0.1763
O=S(=O)(O)Oc1cccnc1 [3-hydroxypyridine sulfate]	0.6871	–	–
N[C@@H](CCC(=O)N[C@@H](Cc1ccc(O)cc1)C(=O)O)C(=O)O [gamma-glutamyltyrosine]	0.275	0.3674	–
O=c1c(-c2ccc(O)cc2)coc2cc(O)cc(O)c12 [genistein]	–	–	Log2FoldChange [2]: -1.184
C[C@@H](C(=O)O)N(C)C [N,N-dimethylalanine]	0.275	–	–
CCCC/C=C/CCCCCCCC(=O)O [myristelaidate (tr 14:1n5)]	–	0.1763	–
CCCCCCCCCCCCCCCCCC(=O)OC[C@H](COP(=O)([O-])OCC[N+](C)(C)C)OC(=O)CCCCCCCCCCCCCCCCC [1,2-distearoyl-GPC (18:0/18:0)]	0.433	–	–
O=C(CO)N[C@H]1[C@H]([C@H](O)[C@H](O)CO)OC(O)(C(=O)O)C[C@@H]1O (stereo partly drawn) [N-glycolylneuraminate]	0.275	0.02857	–
O=P(O)(O)OC[C@H]1O[C@H](OP(=O)(O)OP(=O)(O)O)[C@H](O)[C@@H]1O [5-phosphoribosyl diphosphate (PRPP)]	–	1.1375	–
CCCCC/C=C\C/C=C\CCCCCCCC(=O)OC[C@@H](O)COP(=O)(O)O [1-linoleoyl-GPA (18:2)*]	1.239	–	–
O=C(O)CCCCCCCCCCCCCCCO [16-hydroxypalmitate]	0.4222	–	–
CCCCC/C=C\C/C=C\C/C=C\C/C=C\CCCC(=O)OCC(O)COP(=O)(O)O (stereo not drawn) [1-arachidonoyl-GPA (20:4)]	0.848	–	–
CCCCC/C=C\C/C=C\C/C=C\C/C=C\CCCC(=O)OCC(O)CO (stereo not drawn) [1-arachidonylglycerol (20:4)]	–	0.4005	Log2FoldChange (supplement sheet "Figure 5B"): -0.08927
C=C(OP(=O)(O)O)C(=O)O [phosphoenolpyruvate (PEP)]	–	-0.454	Log2FoldChange (supplement sheet "Figure 5B"): 0.02857
O=c1[nH]cc([C@@H]2O[C@H](CO)[C@@H](O)[C@H]2O)c(=O)[nH]1 [pseudouridine]	–	0.263	Log2FoldChange (supplement sheet "Figure 5B"): 0.1763
CC/C=C\C/C=C\C/C=C\C/C=C\C/C=C\C/C=C\CCC(=O)O[C@H](CC(=O)[O-])C[N+](C)(C)C [docosahexaenoylcarnitine (C22:6)*]	–	0.3896	–
NC(=O)c1ccc[n+]([C@@H]2O[C@H](CO)[C@@H](O)[C@H]2O)c1 [nicotinamide riboside]	0.3103	–	–
CCC(C)CCC(=O)NCC(=O)O (stereo not drawn) [4-methylhexanoylglycine]	0.5261	–	–
O=CNC(Cc1ccccc1)C(=O)O (stereo not drawn) [N-formylphenylalanine]	–	0.111	Log2FoldChange [2]: -0.2176

Reference: paper PMC10443802 (JCI Insight, 2023)
